Holding throughout (assay): affinity purification with mass spectrometry; U2OS FLAG-HA-FAM134A, -FAM134B and -FAM134C doxycycline-inducible cells; anti-HA agarose IP of lysates (50 mM tris-HCl pH 8.0, 120 mM NaCl, 1% NP-40), label-free LC-MS/MS
Test [1] addresses FLAG-HA-FAM134B (UniProt Q9H6L5).
The target in test [2] is HA-FAM134C-WT (UniProt Q86VR2).
For test [3], the target named is T1, FLAG-HA-FAM134A (UniProt Q8NC44).
T1 sequence: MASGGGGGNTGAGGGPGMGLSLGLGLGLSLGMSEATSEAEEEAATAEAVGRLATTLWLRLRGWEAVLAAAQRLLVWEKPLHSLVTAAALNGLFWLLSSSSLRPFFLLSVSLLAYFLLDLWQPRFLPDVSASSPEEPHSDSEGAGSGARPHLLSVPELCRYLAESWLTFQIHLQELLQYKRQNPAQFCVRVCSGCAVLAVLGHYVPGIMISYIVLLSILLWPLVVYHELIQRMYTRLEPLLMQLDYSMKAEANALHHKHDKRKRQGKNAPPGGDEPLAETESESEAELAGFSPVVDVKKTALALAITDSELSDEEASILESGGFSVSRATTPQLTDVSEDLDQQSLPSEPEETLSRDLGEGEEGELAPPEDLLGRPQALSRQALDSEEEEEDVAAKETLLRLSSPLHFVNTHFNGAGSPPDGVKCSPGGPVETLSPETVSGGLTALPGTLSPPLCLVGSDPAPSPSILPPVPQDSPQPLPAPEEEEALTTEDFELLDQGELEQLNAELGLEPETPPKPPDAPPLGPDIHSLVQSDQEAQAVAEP

Chains of the proteins cited; added tags and fusions are not shown.
UniProt Q9H6L5: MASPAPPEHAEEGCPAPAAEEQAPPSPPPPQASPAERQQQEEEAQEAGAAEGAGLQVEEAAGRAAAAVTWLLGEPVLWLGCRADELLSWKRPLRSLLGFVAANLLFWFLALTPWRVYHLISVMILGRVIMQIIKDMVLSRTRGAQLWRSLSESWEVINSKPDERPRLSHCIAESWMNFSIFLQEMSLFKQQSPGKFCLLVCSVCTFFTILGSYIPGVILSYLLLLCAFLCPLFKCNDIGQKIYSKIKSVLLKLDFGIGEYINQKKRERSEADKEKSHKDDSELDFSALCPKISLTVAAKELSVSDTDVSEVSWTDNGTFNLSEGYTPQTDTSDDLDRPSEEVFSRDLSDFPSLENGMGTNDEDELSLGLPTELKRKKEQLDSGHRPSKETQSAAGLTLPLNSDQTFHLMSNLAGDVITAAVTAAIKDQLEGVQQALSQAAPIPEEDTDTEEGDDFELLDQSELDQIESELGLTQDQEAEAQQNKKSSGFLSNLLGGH
UniProt P68400: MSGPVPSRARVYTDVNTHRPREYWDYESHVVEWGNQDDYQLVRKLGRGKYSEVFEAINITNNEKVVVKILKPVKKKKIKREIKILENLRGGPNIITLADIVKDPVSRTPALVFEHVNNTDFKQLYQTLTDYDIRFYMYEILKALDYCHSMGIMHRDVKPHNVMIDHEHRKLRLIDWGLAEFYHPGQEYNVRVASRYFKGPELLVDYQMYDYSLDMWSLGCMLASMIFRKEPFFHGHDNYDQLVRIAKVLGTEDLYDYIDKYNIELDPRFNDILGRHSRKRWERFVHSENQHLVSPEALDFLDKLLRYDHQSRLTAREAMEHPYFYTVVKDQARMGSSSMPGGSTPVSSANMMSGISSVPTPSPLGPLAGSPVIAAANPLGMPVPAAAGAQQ
UniProt P67870: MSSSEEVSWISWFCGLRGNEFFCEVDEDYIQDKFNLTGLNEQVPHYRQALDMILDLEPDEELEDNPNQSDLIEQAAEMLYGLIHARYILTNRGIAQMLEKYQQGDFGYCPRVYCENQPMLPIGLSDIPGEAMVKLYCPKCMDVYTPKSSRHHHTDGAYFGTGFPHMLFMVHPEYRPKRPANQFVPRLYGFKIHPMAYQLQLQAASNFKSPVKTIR

No constants are given. Whether binding was seen depends on the method and setting. Binding seen in cells or lysates may run through a third protein. Here binding means that the protein was enriched with, or labelled near, the bait; the list need not be complete. For part of these data: No binding means not detected with the bait. For part of these data: Where a sequence is shown, tags or fusion partners need not be part of it.

This passage reports binding results from PMC9432840.

On to “CK2 α subunit (from UniProt P68400 1-391) (enzyme)”, for which the binding result in test [1] is “no binding”; in test [2], “binds”; in test [3], “no binding”.

With “CK2 α^I subunit (from UniProt P19784 1-350) (enzyme)”, the binding entry in test [1] is “no binding”; in test [2], “binds”; in test [3] it was “no binding”.

As for “CK2 β subunit (from UniProt P67870 1-215)”, the results for the binding result in test [1], in test [2] and in test [3] were “no binding”, “binds” and “no binding”, respectively.
